The test system of this data set is soil bacteria. The format is cell-based. Particulars: antibiotic as sole carbon source at 1 g/L, 11 soils.
As to `CC1(C)S[C@@H]2[C@H](NC(=O)C(C(=O)O)c3ccccc3)C(=O)N2[C@H]1C(=O)O` (stereo partly shown) [carbenicillin], the “Soils yielding clonal isolates able to subsist on the antibiotic” value is “all the soils tested”. In the case of `Cc1onc(-c2c(Cl)cccc2Cl)c1C(=O)N[C@@H]1C(=O)N2[C@@H]1SC(C)(C)[C@@H]2C(=O)O` [dicloxacillin], the “Soils yielding clonal isolates able to subsist on the antibiotic” value is on record as 9 out of 11 soils. For `CCn1cc(C(=O)O)c(=O)c2ccc(C)nc21` [nalidixic acid] the value was “a majority of the soils”; for `CC1(C)S[C@@H]2[C@H](NC(=O)Cc3ccccc3)C(=O)N2[C@H]1C(=O)O` [penicillin, penicillin G], “all the soils tested”.
